Counter-ions that a name gives are not always drawn. Like-named read-outs stand apart in the source and are kept apart here. Out of some 3,300 compounds screened, about 95 (3%) showed an effect of 50% or more. This is one part of the list.
Test system: HCoV-229E
Set-up: species or system Huh-7; HTS, protection from HCoV-229E induced cell death, luminescent cell viability (CellCounting-Lite 2.0), inhibition rate
Conditions: 24 h post infection, 1 h compound pre-incubation, 10 µM, inhibitor

| SMILES | 229E Inhibition rate | 229E Inhibition rate (229E Inhibition rate, 24 h) |
| --- | --- | --- |
| O=C(O)[C@H]1O[C@@H](Oc2c(O)cc(O)c3c(=O)c(O)c(-c4ccc(O)c(O)c4)oc23)[C@H](O)[C@@H](O)[C@@H]1O [Hibifolin] | 43.4% | – |
| NC(=O)NC1NC(=O)NC1=O (centres unmarked) [Allantoin] | 34.6% | – |
| CC/C=C\CC1=C(C)CCC1=O [cis-Jasmone] | 17.9% | – |
| CN1CCc2cc3c(c4c2C1Cc1ccccc1-4)OCO3 (centres unmarked) [Roemerine] | 25.9% | – |
| O=C(O)C=Cc1ccc(O)cc1 [p-Hydroxycinnamic acid] | 10.3% | – |
| COc1c2ccoc2cc2oc(=O)ccc12 [Bergapten] | 15.5% | – |
| O=c1c(O)c(-c2ccc(O)c(O)c2)oc2cc(O)cc(O)c12 [Quercetin (dihydrate)] | – | 24.9% |
| CCCCCCCCCCCC1=C(O)C(=O)C=C(O)C1=O [Embelin] | 12.3% | – |
| C[C@@H]1CC[C@]2(C(=O)O[C@@H]3O[C@H](CO)[C@@H](O)[C@H](O)[C@H]3O)CC[C@]3(C)C(=CC[C@@H]4[C@@]5(C)CC[C@H](O)[C@@](C)(CO)[C@@H]5CC[C@]43C)[C@@H]2[C@]1(C)O [Pedunculoside] | 10.8% | – |
| CCCCCCCCCCCCCCCCCCOC(=O)[C@@]1(C)CC[C@]2(C)CC[C@]3(C)C(=CC(=O)[C@@H]4[C@@]5(C)CC[C@H](O)C(C)(C)[C@@H]5CC[C@]43C)[C@@H]2C1 [Stearyl glycyrrhetinate] | 12.1% | – |
| Cc1cc(O)c2c(c1)C(=O)c1cccc(O[C@@H]3O[C@H](CO)[C@@H](O)[C@H](O)[C@H]3O)c1C2=O [Chrysophanol 8-O-glucoside] | 8.4% | – |
| COc1cccc(CC(=O)O)c1 [3-Methoxyphenylacetic acid] | 12.5% | – |
| O=C(O)CCc1ccccc1 [Hydrocinnamic acid] | 12.3% | – |
| O=C(O)/C=C\C(=O)O [Maleic Acid] | 11% | – |
| CC1(C)CCC[C@]2(C)[C@@H](C=O)C(C=O)=CC[C@@H]12 [Polygodial] | 16.5% | – |
| O=C(O)[C@@H]1CCCCN1 [L-Pipecolic acid] | 10.8% | – |
| Oc1ccc([C@H]2Oc3cc(O)cc(O)c3C[C@@H]2O)cc1 [(+)-Afzelechin] | 9.4% | – |
| O=c1cc(-c2ccc(O)cc2)oc2cc(O)c(O)c(O)c12 [Scutellarein] | 21.2% | – |
| Cc1cc(C)c(O)c(C)c1 [2,4,6-Trimethylphenol] | 22.3% | – |
| CO[C@H]1[C@H](O)[C@@H](O)[C@@H](O)[C@H](O)[C@@H]1O [D-Pinitol] | 9.1% | – |
| COc1ccc2cc3[n+](cc2c1OC)CCc1cc2c(cc1-3)OCO2 [Berberine (chloride)] | – | 12.1% |
| O=c1c2cc(O)c(O)cc2oc2c([C@@H]3O[C@H](CO)[C@@H](O)[C@H](O)[C@H]3O)c(O)cc(O)c12 [Isomangiferin] | 6% | – |
| O=C(O)c1ccc(C(=O)O)o1 [2,5-Furandicarboxylic acid] | 7.6% | – |

| SMILES | 229E Inhibition rate | 229E Inhibition rate (229E Inhibition rate, 24 h) |
| --- | --- | --- |
| CCOCc1ccccc1 [(Ethoxymethyl)benzene] | 13.6% | – |
| O=C(O)c1cccnc1C(=O)O [Quinolinic acid] | 13.4% | – |
| O=C(O)c1ccccc1 [Benzoic acid] | 11.6% | – |
| O=c1ccc2cc(O)ccc2o1 [6-Hydroxycoumarin] | 10.6% | – |
| O=C(O)/C=C/c1ccccc1 [trans-Cinnamic acid] | – | 18.6% |
| Cn1cc(C(N)=O)ccc1=O [Nudifloramide] | 9.5% | – |
| COc1cc2c(cc1OC)[C@@H]1Cc3ccc(OC)c(OC)c3C[N@@+]1([O-])CC2 [(-)-Corynoxidine] | 22.2% | – |
| COc1cc(O)c2c(=O)c3c(O[C@@H]4O[C@H](CO)[C@@H](O)[C@H](O)[C@H]4O)ccc(O)c3oc2c1 [Swertianolin] | 6.8% | – |
| CC(CC(=O)O)CC(=O)O [3-Methylglutaric acid] | 5.4% | – |
| N[C@H]1[C@H](O[C@H]2[C@H](O)[C@@H](N)C(O)O[C@@H]2CO)O[C@H](CO)[C@@H](O)[C@@H]1O (some centres unmarked) [Chitobiose (dihydrochloride)] | 11.5% | – |
| CCCCCCCCCCCC(=O)OC [Methyl laurate] | 7.9% | – |
| CC(C)=CCC[C@](C)(O)[C@@H]1CC=C(C)CC1 [alpha-Bisabolol] | – | 45.5% |
| Cc1ccn(C)n1 [1,3-Dimethylpyrazole] | 10.9% | – |
| C[C@H](CC[C@@H](O[C@@H]1O[C@H](CO[C@@H]2O[C@H](CO)[C@@H](O)[C@H](O)[C@H]2O)[C@@H](O)[C@H](O)[C@H]1O[C@@H]1O[C@H](CO)[C@@H](O)[C@H](O)[C@H]1O)C(C)(C)O)[C@H]1CC[C@@]2(C)[C@@H]3CC=C4[C@@H](CC[C@H](O[C@@H]5O[C@H](CO)[C@@H](O)[C@H](O)[C@H]5O)C4(C)C)[C@]3(C)[C@H](O)C[C@]12C [Siamenoside I] | 25.3% | – |
| CCCCCCCCCCCCC/C=C/[C@@H](O)[C@@H](N)COP(=O)(O)O [Sphingosine-1-phosphate] | 19.6% | – |
| CC1(C)[C@@H](O[C@H]2O[C@H](C(=O)O)[C@@H](O)[C@H](O)[C@H]2O[C@@H]2O[C@H](C(=O)O)[C@@H](O)[C@H](O)[C@H]2O)CC[C@]2(C)[C@H]3C(=O)C=C4[C@@H]5C[C@@](C)(C(=O)O)CC[C@]5(C)CC[C@@]4(C)[C@]3(C)CC[C@@H]12 [Dipotassium glycyrrhizinate] | – | 8.5% |
| Cc1cc(O)c2c(c1)C(=O)c1cc(O)cc(O[C@@H]3O[C@H](CO)[C@@H](O)[C@H](O)[C@H]3O)c1C2=O [Emodin-8-glucoside] | 7.8% | – |
| COc1cc2oc(=O)ccc2cc1O [Isoscopoletin] | 0% | – |
| N[C@H]1C(O)O[C@H](CO)[C@@H](O)[C@@H]1O (some centres unmarked) [Glucosamine (hydrochloride)] | – | 9.7% |
| COC(=O)c1ccco1 [Methyl 2-furoate] | 0% | – |
| COC1=CC(=O)C=C(OC)C1=O [2,6-Dimethoxy-1,4-benzoquinone] | 4.1% | – |
| OC[C@H]1O[C@@H](Oc2cc(O)cc(/C=C/c3ccc(O)c(O)c3)c2)[C@H](O)[C@@H](O)[C@@H]1O [Astringin] | 40.4% | – |
| CC(C)=CCC[C@@](C)(O)[C@H]1CC[C@]2(C)[C@@H]1[C@H](O)C[C@@H]1[C@@]3(C)CC[C@H](O[C@@H]4O[C@H](CO)[C@@H](O)[C@H](O)[C@H]4O[C@@H]4O[C@H](CO)[C@@H](O)[C@H](O)[C@H]4O[C@@H]4OC[C@@H](O)[C@H](O)[C@H]4O)C(C)(C)[C@@H]3CC[C@]12C [Notoginsenoside Ft1] | 4.8% | – |

Compounds above with a carbonyl joined to an NH by a bond outside any ring:

| SMILES | 229E Inhibition rate | 229E Inhibition rate (229E Inhibition rate, 24 h) |
| --- | --- | --- |
| NC(=O)NC1NC(=O)NC1=O (centres unmarked) [Allantoin] | 34.6% | – |
| Cn1cc(C(N)=O)ccc1=O [Nudifloramide] | 9.5% | – |

Later entries:

| SMILES | 229E Inhibition rate | 229E Inhibition rate (229E Inhibition rate, 24 h) |
| --- | --- | --- |
| COc1cc(/C=C/C(=O)O)ccc1O [Ferulic acid] | – | 13.6% |
| O=C1O[C@H]([C@@H](O)CO)[C@H](O)[C@@H]1O [L-Gulono-1,4-lactone] | 7.2% | – |
| COc1ccc(-c2coc3cc(O)c(OC)c(O)c3c2=O)cc1O [Iristectorigenin A] | 24.5% | – |
| O=c1ccn([C@@H]2O[C@H](COP(=O)(O)O)[C@@H](O)[C@H]2O)c(=O)[nH]1 [Uridine 5'-monophosphate disodium salt] | – | 8% |
| C[N+](C)(C)CCOP(=O)([O-])OC[C@H](O)CO [sn-Glycero-3-phosphocholine] | 3.7% | – |
| CC1=CC(=O)[C@@H]2C[C@H]1C2(C)C [Verbenone] | 0% | – |
| O=C(/C=C/c1ccccc1)c1ccccc1 [trans-Chalcone] | – | 5.4% |
| CCOC(=O)CC(=O)O [3-Ethoxy-3-oxopropanoic acid] | 0% | – |
| O=C1CCc2ccccc2O1 [Dihydrocoumarin] | 45.1% | – |
| CC1=C(C/C=C(\C)CCC[C@H](C)CCC[C@H](C)CCCC(C)C)C(=O)c2ccccc2C1=O [Vitamin K1] | 11.9% | – |
| O=C(O)CC(O)CC(=O)O [3-Hydroxyglutaric acid] | 16.6% | – |
| NCCc1c[nH]cn1 [Histamine (phosphate)] | – | 8.3% |
| C=C(CCC(C(=O)O)[C@H]1[C@H](O)C[C@@]2(C)C3=CC[C@H]4C(C)(C)[C@@H](OC(C)=O)CC[C@]4(C)C3=CC[C@]12C)C(C)C (some centres unmarked) [Dehydropachymic acid] | 15.8% | – |
| O=C[C@H](O)[C@@H](O)[C@H](O)[C@H](O)COP(=O)(O)O [D-Glucose 6-phosphate (disodium salt)] | 7.6% | – |
| O=C(O)[C@H]1O[C@@H](Oc2cc3oc(-c4ccccc4)cc(=O)c3c(O)c2O)[C@H](O)[C@@H](O)[C@@H]1O [Baicalin] | 6.9% | – |
| N[C@@H](Cc1ccc(O)c(I)c1)C(=O)O [H-Tyr(3-I)-OH] | 9.3% | – |
| O=Cc1ccc(O)cc1 [p-Hydroxybenzaldehyde] | 10.9% | – |
| OC[C@H]1O[C@H](Oc2ccc(O)cc2)[C@H](O)[C@@H](O)[C@@H]1O [α-Arbutin] | 12.4% | – |
| O=C(CCCCCCCCc1ccc(O)cc1)c1c(O)cccc1O [Malabaricone B] | 23.4% | – |
| COC(=O)[C@@]1(C)CC[C@]2(C(=O)O)CC[C@]3(C)C(=CC[C@@H]4[C@@]5(C)C[C@H](O)[C@H](O)[C@@](C)(CO)[C@@H]5CC[C@]43C)[C@@H]2C1 [Phytolaccagenin] | 22.3% | – |
| CC1(C)[C@H]2CC[C@]1(C)C(=O)C2 [Camphor] | 9.3% | – |
| COc1c2ccoc2c(OC[C@@H](O)C(C)(C)O)c2oc(=O)ccc12 [Byakangelicin] | 15.1% | – |

Reference: publication PMC12431657, “Discovery and mechanistic insights of dibenzoylmethane as a broad spectrum inhibitor of coronavirus” (PLOS Pathogens, 2025)
